PubChem BioAssay AID652272 – Drosophila RNAi Screening Center | 2013
In all, the deposit lists about 21,000 reagents; below is a random part of those with a known target gene and a result. In the full data, 503 (2.4%) got an active call. 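Raw plate light values, not normalised; calls rest on replicate z-scores that were not deposited; hits include reporter decreases as well as increases.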 The numbers tell different reagents against one gene apart. Names joined by + are all predicted targets of the reagent. The record does not give: the amount of reagent, the time to read-out.

Screen: 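Finding fly genes that regulate Hedgehog signal transduction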 (primary screen)
System: Drosophila clone 8 (Cl8) cells
Knock-down reagent: long dsRNA against Drosophila genes
Read-out: 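Firefly light from a Hedgehog-responsive ptc promoter reporter and Renilla reference light, both read on a plate reader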
Reading the numbers: firefly Hh reporter signal: higher = more ptc reporter light; Renilla reference signal: higher = more Renilla control light
Rule for the call: 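Hit when the z-score averaged over two replicates is under -2 or over +3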
Meaning of the calls: active = hit: reporter lowered or raised; inactive = not a hit

| predicted target | reagent | firefly Hh reporter signal, replicate 1 | firefly Hh reporter signal, replicate 2 | firefly Hh reporter signal, replicate 3 | Renilla reference signal, replicate 1 | Renilla reference signal, replicate 2 | activity call |
| --- | --- | --- | --- | --- | --- | --- | --- |
| CG30486 | 1 | 71973 | 45347 | – | 1609 | 3211 | inactive |
| TfAP-2 (Transcription factor AP-2) | 1 | 88054 | 1.18e5 | – | 2944 | 3064 | inactive |
| CG31544 (retired record) | 1 | 1.58e5 | – | – | 3015 | – | inactive |
| CG13010 | 1 | 50599 | 93986 | – | 1904 | 5370 | inactive |
| Oatp30B (Organic anion transporting polypeptide 30B) | 1 | 74001 | 1.22e5 | – | 3332 | 4820 | inactive |
| wor (worniu) | 1 | 80688 | 53597 | – | 2364 | 4869 | inactive |
| cyp33 (cyclophilin-33) | 1 | 71499 | 69157 | – | 3832 | 3162 | inactive |
| Act88F (Actin 88F) | 1 | 62374 | 49280 | – | 1964 | 1319 | inactive |
| thw (thawb) | 1 | 81685 | 99600 | – | 2432 | 2966 | inactive |
| CG12783 | 1 | 76338 | 1.06e5 | – | 2410 | 2792 | inactive |
| CG30484 | 1 | 1.28e5 | 2.30e5 | – | 7869 | 8144 | inactive |
| Or47a (Odorant receptor 47a) | 1 | 72503 | 49601 | – | 1708 | 3664 | inactive |
| CG1902 | 1 | 66812 | 59317 | – | 2939 | 2904 | inactive |
| bam (bag of marbles) | 1 | 6.17e5 | 1.13e5 | – | 35250 | 3558 | inactive |
| Unc-76 (Uncoordinated 76) | 1 | 1.21e5 | 1.41e5 | – | 5036 | 5623 | inactive |
| Unc-76 (Uncoordinated 76) | 2 | 1.18e5 | 2.21e5 | – | 5014 | 9056 | inactive |
| ac (achaete) | 1 | 33728 | 79378 | – | 839 | 3419 | inactive |
| S1P (Site-1 protease) | 1 | 1.47e5 | 1.53e5 | – | 5709 | 4273 | inactive |
| CG13564 | 1 | 82102 | 73617 | – | 1744 | 7249 | inactive |
| CG42561 | 1 | 95933 | 2.21e5 | – | 3180 | 8022 | inactive |
| aralar1 | 1 | 4.57e5 | 1.87e5 | – | 23008 | 3318 | inactive |
| aralar1 | 2 | 86617 | 66497 | – | 1907 | 1970 | inactive |
| CG9626 | 1 | 97385 | 72043 | – | 3553 | 2424 | inactive |
| sl (small wing) | 1 | 74524 | 65347 | – | 1460 | 981 | inactive |
| CG42369 | 1 | 80765 | 47637 | – | 1272 | 4988 | inactive |
| Decay (Death executioner caspase related to Apopain/Yama) | 1 | 98738 | 80490 | – | 3188 | 276 | inactive |
| Or43a (Odorant receptor 43a) | 1 | 89709 | 45370 | – | 2402 | 3847 | inactive |
| CG40378 (retired record) | 1 | 4.88e5 | 1.78e5 | – | 31220 | 4261 | inactive |
| yip2 (yippee interacting protein 2) | 1 | 90645 | 45767 | – | 2395 | 4096 | inactive |
| CG12698 | 1 | 70361 | 1.53e5 | – | 1932 | 6540 | inactive |
| PH4alphaNE3 (prolyl-4-hydroxylase-alpha NE3) | 1 | 1.32e5 | 1.12e5 | – | 3313 | 3015 | inactive |
| Set2 (SET domain containing 2) | 1 | 90279 | 82385 | – | 1466 | 1274 | active |
| CG34178 + CG34177 | 1 | 1.05e5 | 46790 | – | 2597 | 5200 | inactive |
| Ddrgk1 (DDRGK domain containing 1) | 1 | 1.01e5 | 91500 | – | 4085 | 4147 | inactive |
| CG33128 | 1 | 1.41e5 | 1.18e5 | – | 3443 | 3360 | inactive |
| CG5347 | 1 | 1.36e5 | 2.86e5 | – | 4187 | 11237 | inactive |
| CG14464 | 1 | 67072 | 38710 | – | 2256 | 3144 | inactive |
| Tg (Transglutaminase) | 1 | 1.20e5 | 77156 | – | 3344 | 5216 | inactive |
| Cad74A (Cadherin 74A) | 1 | 1.21e5 | – | – | 731 | 3411 | inactive |
| CG7220 | 1 | 1.12e5 | 2.28e5 | – | 3172 | 10417 | inactive |
| CG7220 | 2 | 1.06e5 | 59840 | – | 2793 | 6027 | inactive |
| Grip75 | 1 | 73228 | 49248 | – | 2503 | 4725 | inactive |
| CG31371 | 1 | 83080 | 78082 | – | 2759 | 2518 | inactive |
| Kots (Kotsubu) | 1 | 1.31e5 | 95833 | – | 5040 | 4146 | inactive |
| blot (bloated tubules) | 1 | 3.08e5 | – | – | 7120 | – | inactive |
| blot (bloated tubules) | 2 | 74294 | 45500 | – | 3194 | 2141 | inactive |
| CalpA (Calpain-A) | 1 | 89914 | 57891 | – | 2416 | 4176 | inactive |
| CstF64 (Cleavage stimulation factor 64 kD subunit) | 1 | 6.19e5 | 1.06e5 | – | 37292 | 4425 | inactive |
| CG13850 | 1 | 97703 | 80498 | – | 4229 | 3568 | inactive |
| CG10324 | 1 | 84251 | 99388 | – | 2539 | 2886 | inactive |
| CG10907 | 1 | 43192 | 45403 | 50770 | 4529 | 4099 | inactive |
| TORIP (Torsin interacting protein) | 1 | 60605 | 46560 | – | 3218 | 2536 | inactive |
| CG8026 | 1 | 99233 | 74695 | – | 3974 | 2512 | inactive |
| CG8026 | 2 | 92646 | 54016 | – | 1699 | 4099 | inactive |
| CG9592 | 1 | 80311 | – | – | 3701 | 2227 | inactive |
| CG12945 | 1 | 89552 | 1.16e5 | – | 2151 | 3450 | inactive |
| Or35a (Odorant receptor 35a) | 1 | 1.05e5 | 69782 | – | 2865 | 6278 | inactive |

Entries above with an active call:
| predicted target | reagent | firefly Hh reporter signal, replicate 1 | firefly Hh reporter signal, replicate 2 | firefly Hh reporter signal, replicate 3 | Renilla reference signal, replicate 1 | Renilla reference signal, replicate 2 | activity call |
| --- | --- | --- | --- | --- | --- | --- | --- |
| Set2 (SET domain containing 2) | 1 | 90279 | 82385 | – | 1466 | 1274 | active |
